# Article PMC6100580
# No constants are given. Whether binding was seen depends on the method and setting. In cells and extracts the contact can be indirect. Sequences can lack the tags named with a protein.
# B1: HA-TRIM14 (protein, UniProt Q14142 1-442)
# chain: MAGAATGSRTPGRSELVEGCGWRCPEHGDRVAELFCRRCRRCVCALCPVLGAHRGHPVGLALEAAVHVQKLSQECLKQLAIKKQQHIDNITQIEDATEKLKANAESSKTWLKGKFTELRLLLDEEEALAKKFIDKNTQLTLQVYREQADSCREQLDIMNDLSNRVWSISQEPDPVQRLQAYTATEQEMQQQMSLGELCHPVPLSFEPVKSFFKGLVEAVESTLQTPLDIRLKESINCQLSDPSSTKPGTLLKTSPSPERSLLLKYARTPTLDPDTMHARLRLSADRLTVRCGLLGSLGPVPVLRFDALWQVLARDCFATGRHYWEVDVQEAGAGWWVGAAYASLRRRGASAAARLGCNRQSWCLKRYDLEYWAFHDGQRSRLRPRDDLDRLGVFLDYEAGVLAFYDVTGGMSHLHTFRATFQEPLYPALRLWEGAISIPRLP
# Columns and labels:
# [1] = target: Flag-tagged HBV small S (hepatitis B virus); test: co-IP; 293 T cells co-transfected with HA-TRIM14 (WT or mutants) and a Flag-tagged HBV protein, collected 40 h later; lysis in 50 mM Tris-HCl pH 8.0, 150 mM NaCl, 1% NP-40; ANTI-FLAG M2 Affinity Gel overnight; immunoblot
# [2] = target: Flag-tagged HBV middle S (hepatitis B virus); test: as above
binder,measurement,setting,value
B1,binding,[1],no binding
same,binding,[2],no binding
